Measurements taken from publication PMC10582078.
Results are given in words; binding and its absence hold for the method and conditions named. Binding seen in cells or lysates may run through a third protein. Some results given as binding are weak or reduced against the parent protein; the word gives no strength. Where a sequence is shown, tags or fusion partners need not be part of it.

Assays:
[1] = molecular target: T1, NF-L^5A-myc-6xHis (compound mutant lacking the four head and one tail domain glycosites) (human) (UniProt P07196); assay: co-IP; NEFL-/- 293T cells transfected 48 h with NF-L-myc-6xHis (WT, 4A or 5A) ± INA ± OGT-3xFLAG; myc IP, IB with INA antibody; lysis buffer 20 mM Tris-HCl pH 7.4, 1% Triton X-100, 0.1% SDS, 150 mM NaCl, 1 mM EDTA; 4 °C
T1 sequence: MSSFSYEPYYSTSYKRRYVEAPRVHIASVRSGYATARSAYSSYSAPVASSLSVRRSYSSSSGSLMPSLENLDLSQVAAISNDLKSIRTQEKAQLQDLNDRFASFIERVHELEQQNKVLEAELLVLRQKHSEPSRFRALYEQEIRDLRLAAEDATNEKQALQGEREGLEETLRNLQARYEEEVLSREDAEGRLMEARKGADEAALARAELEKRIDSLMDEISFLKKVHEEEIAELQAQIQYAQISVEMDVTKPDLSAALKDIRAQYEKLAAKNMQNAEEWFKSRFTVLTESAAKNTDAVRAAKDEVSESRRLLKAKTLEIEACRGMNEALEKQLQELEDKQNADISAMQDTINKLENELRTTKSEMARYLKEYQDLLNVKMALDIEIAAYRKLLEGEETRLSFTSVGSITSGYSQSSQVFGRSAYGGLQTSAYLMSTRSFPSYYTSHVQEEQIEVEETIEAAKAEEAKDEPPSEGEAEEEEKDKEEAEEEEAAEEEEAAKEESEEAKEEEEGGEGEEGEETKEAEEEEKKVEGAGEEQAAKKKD

[2] = molecular target: T2, NF-L^4A-myc-6xHis (all four head-domain glycosites changed to alanine) (human) (UniProt P07196); assay: as above
T2 sequence: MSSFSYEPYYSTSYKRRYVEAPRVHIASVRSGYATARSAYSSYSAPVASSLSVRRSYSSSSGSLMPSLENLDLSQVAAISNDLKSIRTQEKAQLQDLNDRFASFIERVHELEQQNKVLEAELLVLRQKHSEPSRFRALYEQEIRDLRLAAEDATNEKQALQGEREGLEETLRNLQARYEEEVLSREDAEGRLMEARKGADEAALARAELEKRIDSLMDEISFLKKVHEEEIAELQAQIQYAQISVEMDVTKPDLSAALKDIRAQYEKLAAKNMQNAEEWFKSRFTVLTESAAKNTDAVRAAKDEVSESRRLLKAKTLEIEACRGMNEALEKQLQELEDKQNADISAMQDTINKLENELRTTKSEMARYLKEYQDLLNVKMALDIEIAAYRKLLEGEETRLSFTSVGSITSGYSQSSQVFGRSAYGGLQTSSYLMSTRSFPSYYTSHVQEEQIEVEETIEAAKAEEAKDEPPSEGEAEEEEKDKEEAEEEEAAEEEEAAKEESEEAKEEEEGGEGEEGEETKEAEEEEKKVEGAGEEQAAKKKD

B1: α-internexin (INA), transfected (protein, UniProt Q16352 1-499)
chain: MSFGSEHYLCSSSSYRKVFGDGSRLSARLSGAGGAGGFRSQSLSRSNVASSAACSSASSLGLGLAYRRPPASDGLDLSQAAARTNEYKIIRTNEKEQLQGLNDRFAVFIEKVHQLETQNRALEAELAALRQRHAEPSRVGELFQRELRDLRAQLEEASSARSQALLERDGLAEEVQRLRARCEEESRGREGAERALKAQQRDVDGATLARLDLEKKVESLLDELAFVRQVHDEEVAELLATLQASSQAAAEVDVTVAKPDLTSALREIRAQYESLAAKNLQSAEEWYKSKFANLNEQAARSTEAIRASREEIHEYRRQLQARTIEIEGLRGANESLERQILELEERHSAEVAGYQDSIGQLENDLRNTKSEMARHLREYQDLLNVKMALDIEIAAYRKLLEGEETRFSTSGLSISGLNPLPNPSYLLPPRILSATTSKVSSTGLSLKKEEEEEEASKVASKKTSQIGESFEEILEETVISTKKTEKSNIEETTISSQKI
- binding [1]: binds
- binding [2]: binds
